Measurements: US20140371074A1, “METHOD TO INCREASE PLANT YIELD” (priority 2012, published 2014)

How the values were obtained:
Format in all cases: in vivo
[1] = test system: soybean cultivars L2084R2, L2711R2X; assay: Field 2012: 2,4-D Low Vol 4 + crop oil drizzled onto soil at R1 stage, Alexander, Iowa (Table 2a)
Experimental: Plants were treated by drizzling via low pressure spraying the 2,4-D solution onto the soil along each side of the rows when plants are at the R1 stage of growth. The date of planting was May 15, 2012 and the date of harvest was Oct. 2, 2012 at plots in Alexander, Iowa (Table 2a) and Laurel, Iowa (Table 2b). Plants were grown from Roundup Ready seed and were sprayed with glyphosate for weed control. Plants were treated with between 1X and 5.5X of 2,4-D solution mixed with crop oil at 15.3 ounces of 2,4-D Low Vol 4 plus 0.32 ounces crop oil per gallon, where 1X is equivalent to approximately 0.45 pounds acid equivalent of 2,4-D. Two repetitions were performed at different plots. […] The moisture percentages were used in correcting each yield to a 13% moisture basis.

[2] = test system: soybean variety Asgrow 2933; assay: Field: side dress with 2,4-D Low Vol 4 solution, Laurel, Iowa (Table 3)
Experimental: Plants were grown from Roundup Ready variety Asgrow 2933 seed that was treated with accelron (Monsanto) prior to planting. Plants were side dressed by application with a 3-point cultivator modified to spray on the ground in front of the shanks, the shanks then mix the 2,4-D mixture with the soil and move the mixture closer to the plant roots. Plants were treated with between 1X and 4X of 2,4-D Low Vol 4 solution, where 1X is equivalent to approximately 0.19 pounds acid equivalent of 2,4-D. Plants were grown with a row width of 30 inches and row length of 562 feet.

[3] = test system: soybean Latham 2767 Roundup Ready; assay: Field: seed treatment with 2,4-D solution 1X-10X, Laurel, Iowa (Table 6); settings: 1X~0.0002968 lb a.e.
Experimental: Previously untreated soybean seeds were treated with between 1X to 10X of 2,4-D solution, where 1X is equivalent to approximately 0.0002968 pounds acid equivalent of 2,4-D. The seed variety was Latham 2767 Roundup Ready seeds and seeds were planted in Laurel, Iowa with a row width of 30 inches. Plants were sprayed with foliar insecticide and fungicide.

[4] = 1.0X Rate, L2084R2, 1X~0.45 lb a.e.
[5] = 1.0X Rate, L2711R2X, 1X~0.45 lb a.e.
[6] = 1.5X Rate, L2084R2, 1X~0.45 lb a.e.
[7] = 1.5X Rate, L2711R2X, 1X~0.45 lb a.e.
[8] = 2.0X Rate, L2084R2, 1X~0.45 lb a.e.
[9] = 2.5X Rate, L2084R2, 1X~0.45 lb a.e.
[10] = 2.5X Rate, L2711R2X, 1X~0.45 lb a.e.
[11] = 3.0X Rate, L2084R2, 1X~0.45 lb a.e.
[12] = 3.0X Rate, L2711R2X, 1X~0.45 lb a.e.
[13] = Overall location average, all rates, both cultivars

**Q.** Which “Repetition 1 Moisture” value [1, 4] does the source give for `O=C(O)COc1ccc(Cl)cc1Cl` [2,4-D, 2,4-Dichlorophenoxyacetic acid] here?
**A.** 4.3%

**Q.** What about the “Repetition 2 Moisture” value [1, 4] of the same compound?
**A.** 4.9%

**Q.** What about the “Repetition 1 Moisture” value [1, 5] of the same compound?
**A.** 4.1%

**Q.** What about the “Repetition 2 Moisture” value [1, 5] of the same compound?
**A.** 4.9%

**Q.** And the “Repetition 1 Moisture” value [1, 6]?
**A.** 4.3%

**Q.** What about the “Repetition 2 Moisture” value [1, 6] of the same compound?
**A.** 5.2%

**Q.** What about the “Repetition 1 Moisture” value [1, 7] of the same compound?
**A.** 4.2%

**Q.** What about the “Repetition 2 Moisture” value [1, 7] of the same compound?
**A.** 5%

**Q.** And the “Repetition 1 Moisture” value [1, 8]?
**A.** 4.5%

**Q.** And the “Repetition 2 Moisture” value [1, 8]?
**A.** 5.1%

**Q.** And the “Repetition 2 Moisture” value ([1]; 2.0X Rate, L2711R2X, 1X~0.45 lb a.e.)?
**A.** 5%

**Q.** What about the “Repetition 1 Moisture” value [1, 9] of the same compound?
**A.** 4.3%

**Q.** What about the “Repetition 2 Moisture” value [1, 9] of the same compound?
**A.** 5.2%

**Q.** What about the “Repetition 1 Moisture” value [1, 10] of the same compound?
**A.** 4.5%

**Q.** What about the “Repetition 2 Moisture” value [1, 10] of the same compound?
**A.** 4.9%

**Q.** And the “Repetition 1 Moisture” value [1, 11]?
**A.** 4.4%

**Q.** And the “Repetition 2 Moisture” value [1, 11]?
**A.** 5.1%

**Q.** And the “Repetition 1 Moisture” value [1, 12]?
**A.** 4.6%

**Q.** And the “Repetition 2 Moisture” value [1, 12]?
**A.** 5.1%

**Q.** What about the “Repetition 1 Moisture” value ([1]; 3.5X Rate, L2084R2, 1X~0.45 lb a.e.) of the same compound?
**A.** 4.9%

**Q.** What about the “Repetition 1 Moisture” value ([1]; 3.5X Rate, L2711R2X, 1X~0.45 lb a.e.) of the same compound?
**A.** 4.6%

**Q.** And the “Repetition 1 Moisture” value ([1]; 4.0X Rate, L2084R2, 1X~0.45 lb a.e.)?
**A.** 4.8%

**Q.** What about the “Repetition 1 Moisture” value ([1]; 4.0X Rate, L2711R2X, 1X~0.45 lb a.e.) of the same compound?
**A.** 4.8%

**Q.** And the “Repetition 1 Moisture” value ([1]; 4.5X Rate, L2084R2, 1X~0.45 lb a.e.)?
**A.** 4.9%

**Q.** What about the “Repetition 1 Moisture” value ([1]; 4.5X Rate, L2711R2X, 1X~0.45 lb a.e.) of the same compound?
**A.** 4.7%

**Q.** And the “Repetition 1 Moisture” value ([1]; 5.0X Rate, L2084R2, 1X~0.45 lb a.e.)?
**A.** 4.7%

**Q.** And the “Repetition 1 Moisture” value ([1]; 5.0X Rate, L2711R2X, 1X~0.45 lb a.e.)?
**A.** 4.6%

**Q.** What about the “Repetition 1 Moisture” value ([1]; 5.5X Rate, L2084R2, 1X~0.45 lb a.e.) of the same compound?
**A.** 4.8%

**Q.** And the “Repetition 1 Moisture” value ([1]; 5.5X Rate, L2711R2X, 1X~0.45 lb a.e.)?
**A.** 4.9%

**Q.** And the “Repetition 2 Moisture” value ([1]; Average over 1.0X-3.0X Rates, L2084R2)?
**A.** 5.10%

**Q.** What about the “Repetition 2 Moisture” value ([1]; Average over 1.0X-3.0X Rates, L2711R2X) of the same compound?
**A.** 4.98%

**Q.** And the “Repetition 1 Moisture” value ([1]; Average over 1.0X-5.5X Rates, L2084R2)?
**A.** 4.59%

**Q.** And the “Repetition 1 Moisture” value ([1]; Average over 1.0X-5.5X Rates, L2711R2X)?
**A.** 4.56%

**Q.** And the “Repetition 1 Moisture” value [1, 13]?
**A.** 4.57%

**Q.** And the “Repetition 2 Moisture” value [1, 13]?
**A.** 5.04%

**Q.** And the Harvest moisture ([2]; 1X side dress (1X~0.19 lb a.e.))?
**A.** 8.8%

**Q.** And the Harvest moisture ([2]; 2X side dress (1X~0.19 lb a.e.))?
**A.** 9.4%

**Q.** And the Harvest moisture ([2]; 3X side dress (1X~0.19 lb a.e.))?
**A.** 8.3%

**Q.** What about the Harvest moisture ([2]; 4X side dress (1X~0.19 lb a.e.)) of the same compound?
**A.** 8.7%

**Q.** And the Harvest moisture ([3]; 1X seed treatment)?
**A.** 12.7%

**Q.** What about the Harvest moisture ([3]; 2X seed treatment) of the same compound?
**A.** 15.6%

**Q.** What about the Harvest moisture ([3]; 3X seed treatment) of the same compound?
**A.** 18.7%

**Q.** And the Harvest moisture ([3]; 4X seed treatment)?
**A.** 20.5%

**Q.** What about the Harvest moisture ([3]; 5X seed treatment) of the same compound?
**A.** 22.4%

**Q.** What about the Harvest moisture ([3]; 6X seed treatment) of the same compound?
**A.** 21.2%

**Q.** And the Harvest moisture ([3]; 7X seed treatment)?
**A.** 24.1%

**Q.** What about the Harvest moisture ([3]; 8X seed treatment) of the same compound?
**A.** 24.3%

**Q.** And the Harvest moisture ([3]; 9X seed treatment)?
**A.** 22.6%

**Q.** What about the Harvest moisture ([3]; 10X seed treatment) of the same compound?
**A.** 20.3%
